From ChEMBL document CHEMBL4303122, “Identification of potential treatments for COVID-19 through artificial intelligence-enabled phenomic analysis of human cells infected with SARS-CoV-2” (2020) come the findings set out here.

The full ranking holds about 1,600 compounds; the median of “Hit score” is about 0.13, and the highest 2% start at about 0.46. This is one part of the list.

The experiment has as its system SARS-CoV-2. In words: Antiviral activity against SARS-CoV-2 (USA-WA1/2020 strain) measured by imaging in HRCE cells at MOI 0.4 after 96 hrs (reported as hit score from 0-1 for on-disease vs off-disease activity: scores >0.6 considered hits). The experiment is classed as functional, Homo sapiens.
`CC(C)(C)CC(=O)OCC(=O)[C@@]1(O)CC[C@H]2[C@@H]3CCC4=CC(=O)C=C[C@]4(C)[C@H]3[C@@H](O)C[C@@]21C` [PREDNISOLONE TEBUTATE] gave a Hit score of 0.1945.

Take `COC1=CC(=O)C[C@@H](C)[C@]12Oc1c(Cl)c(OC)cc(OC)c1C2=O` [GRISEOFULVIN]: the Hit score is 0.06768.

`CCC(=O)NCC[C@@H]1CCc2ccc3c(c21)CCO3` [RAMELTEON] had a Hit score of 0.1348.

`COc1cc(O)c(C(=O)Nc2nc(C(=O)NCCN(C(C)C)C(C)C)cs2)cc1OC.Cl.O.O.O` [ACOTIAMIDE HYDROCHLORIDE]: the Hit score was 0.02159.

Regarding `C=CC[C@@H]1/C=C(\C)C[C@H](C)C[C@H](OC)[C@H]2O[C@@](O)(C(=O)C(=O)N3CCCC[C@H]3C(=O)O[C@H](/C(C)=C/[C@@H]3CC[C@@H](O)[C@H](OC)C3)[C@H](C)[C@@H](O)CC1=O)[C@H](C)C[C@@H]2OC` [TACROLIMUS ANHYDROUS], the Hit score is on record as 0.3285.

`OCC(O)CN1CCN(c2ccccc2)CC1` (stereo not given) [DROPROPIZINE] came in with a Hit score of 0.145.

`Nc1nc(=O)c2c([nH]1)NC[C@H](CNc1ccc(C(=O)N[C@@H](CCC(=O)O)C(=O)O)cc1)N2C=O` [LEVOLEUCOVORIN] came in with a Hit score of 0.1157.

`CC[C@@H](C(=O)O)[C@@H]1O[C@@H]([C@@H](C)[C@H](O)[C@H](C)C(=O)[C@H](CC)[C@H]2O[C@]3(C=C[C@@H](O)[C@]4(CC[C@@](C)([C@H]5CC[C@](O)(CC)[C@H](C)O5)O4)O3)[C@H](C)C[C@@H]2C)[C@@H](C)C[C@@H]1C` [NARASIN] had a Hit score of -0.02006.

As for `Cc1cc(O)c(C(=O)N[C@@H](C(=O)N[C@@H]2C(=O)N3C(C(=O)O)=C(CSc4nnnn4C)CS[C@H]23)c2ccc(O)cc2)cn1` [CEFPIRAMIDE], the Hit score came to 0.1367.

`Cc1c(NC(C)C)c(=O)n(-c2ccccc2)n1C` [RAMIFENAZONE] yielded a Hit score of 0.01431.

With `CCOC(=O)Nc1ccc(NCc2ccc(F)cc2)cc1N` [EZOGABINE], the Hit score is 0.1746.

The molecule `NCCc1cc[nH]n1` [BETAZOLE] yielded a Hit score of 0.1111.

For `COc1ccc2c(O[C@@H]3C[C@H]4C(=O)N[C@]5(C(=O)NS(=O)(=O)C6CC6)C[C@H]5/C=C\CCCCN(C)C(=O)[C@@H]4C3)cc(-c3nc(C(C)C)cs3)nc2c1C`, the Hit score was 0.1824.

In turn, `NS(=O)(=O)Cc1noc2ccccc12` [ZONISAMIDE] yielded a Hit score of 0.02562.

Take `CN(C)CCN(Cc1ccc(Cl)cc1)c1ccccn1` [CHLOROPYRAMINE]: the Hit score came to 0.008614.

`CCCCCCCCCCOc1cc2c(O)c(C(=O)OCC)cnc2cc1OCC` [DECOQUINATE] gave a Hit score of 0.0589.

`Cc1cc(C(C#N)c2ccc(Cl)cc2)c(Cl)cc1NC(=O)c1cc(I)cc(I)c1O` (stereo not given) [CLOSANTEL] registered a Hit score of 0.1396.

Take `CN1C(=O)C[C@@H](C(=O)N[C@@H](Cc2c[nH]cn2)C(=O)N2CCC[C@H]2C(N)=O)NC1=O` [TALTIRELIN]: the Hit score was 0.1273.

Consider `CC(C[N+](C)(C)C)OC(N)=O` (stereo not given) [BETHANECHOL], for which the Hit score is reported as 0.07337.

`O=C(O)c1nn(Cc2ccc(Cl)cc2Cl)c2ccccc12` [LONIDAMINE] came in with a Hit score of 0.2694.

`Cc1cc2c(OCC(CNC(C)(C)C)OC(=O)c3ccccc3)cccc2[nH]1` (stereo not given) [BOPINDOLOL] had a Hit score of 0.2339.

For the molecule `Cc1ccc(Sc2ccccc2N2CCNCC2)c(C)c1` [VORTIOXETINE], the Hit score was determined as 0.1805.

As to `COc1ccc(CN(CCN(C)C)c2ncccn2)cc1` [THONZYLAMINE], the Hit score worked out at 0.09678.

In turn, `NCC(=O)CCC(=O)O` [AMINOLEVULINIC ACID] yielded a Hit score of 0.04501.

On to `Cl.O=C1c2cccc3c2[C@H](CCC3)CN1[C@@H]1CN2CCC1CC2` [PALONOSETRON HYDROCHLORIDE], for which the Hit score stood at 0.1883.

`O=C(CCCN1CCC(O)(c2ccc(Cl)cc2)CC1)c1ccc(F)cc1` [HALOPERIDOL] returned a Hit score of 0.212.

Turning to `Cc1nc(C)c(C)nc1C.Cl` [LIGUSTRAZINE HYDROCHLORIDE], the Hit score is reported as 0.08486.

For `C[C@]12CC[C@@H]3c4ccc(O)cc4CC[C@H]3[C@@H]1CC[C@@H]2OC(=O)CCC1CCCC1` [ESTRADIOL CYPIONATE], the Hit score worked out at 0.1681.

Take `O=C(O)C[C@H](O)C[C@H](O)/C=C/c1c(C2CC2)nc2ccccc2c1-c1ccc(F)cc1` [PITAVASTATIN]: the Hit score is listed as -0.1096.

`Cc1ccc(C)c(OCCCC(C)(C)C(=O)O)c1` [GEMFIBROZIL] showed a Hit score of 0.05216.

With `O=C(O)c1ccc(NC(=O)[C@H](Cc2ccc(O)cc2)NC(=O)c2ccccc2)cc1` [BENTIROMIDE], the Hit score came to 0.2686.

For the molecule `Nc1ccncc1N` [AMIFAMPRIDINE], the Hit score is listed as 0.1603.

Turning to `COC(=O)[C@@H](N)Cc1ccc(O)c(O)c1` [MELEVODOPA], the Hit score is 0.204.

For the molecule `NCCS` [CYSTEAMINE], the Hit score turned out to be 0.253.

In turn, `COCCOC(=O)C1=C(C)NC(C)=C(C(=O)OC(C)C)C1c1cccc([N+](=O)[O-])c1` (stereo not given) [NIMODIPINE] registered a Hit score of 0.09541.

The molecule `CN1C(C(=O)Nc2ccccn2)=C(O)c2ccccc2S1(=O)=O` [PIROXICAM] gave a Hit score of 0.07142.

Regarding `COc1c(C)c2c(c(O)c1C/C=C(\C)CCC(=O)OCCN1CCOCC1)C(=O)OC2` [MYCOPHENOLATE MOFETIL], the Hit score is on record as 0.08086.

In the case of `O=C(O)c1ccc(-n2nc(-c3ccccc3O)nc2-c2ccccc2O)cc1` [DEFERASIROX], the Hit score is on record as 0.06618.

`NNC(=O)CN1C(=O)CN=C(c2ccccc2)c2cc(Br)ccc21`: the Hit score was 0.07373.

As to `O=C(Nc1nc(-c2cc(Cl)cs2)c(N2CCN(C3CCCCC3)CC2)s1)c1cnc(N2CCC(C(=O)O)CC2)c(Cl)c1` [AVATROMBOPAG], the Hit score is reported as 0.04204.

On to `CO[C@]12C[C@@H](COC(=O)c3cncc(Br)c3)CN(C)[C@@H]1Cc1cn(C)c3cccc2c13` [NICERGOLINE], for which the Hit score was 0.1321.

`Cc1cc(C#N)cc(C)c1Oc1nc(Nc2ccc(C#N)cc2)nc(N)c1Br` [ETRAVIRINE]: the Hit score is -0.08885.

In the case of `CC1(C)S[C@@H]2[C@H](NC(=O)COc3ccccc3)C(=O)N2[C@H]1C(=O)O` [PENICILLIN V], the Hit score amounted to 0.002553.

On to `CC(C)NC(=N)NC(=N)Nc1ccc(Cl)cc1` [PROGUANIL], for which the Hit score was 0.102.

On to `c1cc(CN2CCCNCCNCCCNCC2)ccc1CN1CCCNCCNCCCNCC1` [PLERIXAFOR], for which the Hit score turned out to be 0.1129.

As to `COC(=O)N[C@@H](C)CNc1nccc(-c2cn(C(C)C)nc2-c2cc(Cl)cc(NS(C)(=O)=O)c2F)n1` [ENCORAFENIB], the Hit score is 0.2561.

The molecule `CN(Cc1ccc(C(C)(C)C)cc1)Cc1cccc2ccccc12` [BUTENAFINE] returned a Hit score of 0.15.

The molecule `Cc1ccccc1C(=O)Nc1ccc(C(=O)N2CCCC(N(C)C)c3ccccc32)cc1` (stereo not given) [MOZAVAPTAN] came in with a Hit score of 0.1836.

Take `CC(=O)CC(c1ccc([N+](=O)[O-])cc1)c1c(O)c2ccccc2oc1=O` (stereo not given) [ACENOCOUMAROL]: the Hit score was 0.2854.

In turn, `Cn1nnc(-c2ccc(-c3ccc(N4C[C@H](CO)OC4=O)cc3F)cn2)n1` [TEDIZOLID] came in with a Hit score of 0.1987.

`Cc1cccc(Nc2ccncc2S(=O)(=O)NC(=O)NC(C)C)c1` [TORSEMIDE]: the Hit score came to 0.1161.

As for `CC(C)OC(=O)[C@H](C)N[P@](=O)(CO[C@H](C)Cn1cnc2c(N)ncnc21)Oc1ccccc1` [TENOFOVIR ALAFENAMIDE], the Hit score worked out at 0.2046.

Consider `C/C(=C\C(=O)OCCCCCCCCC(=O)O)C[C@@H]1OC[C@H](C[C@@H]2O[C@H]2[C@@H](C)[C@H](C)O)[C@@H](O)[C@H]1O` [MUPIROCIN], for which the Hit score came to 0.06424.

Molecule `CC(C)Cn1cnc2c(N)nc3ccccc3c21` [IMIQUIMOD] gave a Hit score of 0.02596.

On to `NC(=O)N1c2ccccc2CC(=O)c2ccccc21` [OXCARBAZEPINE], for which the Hit score came to 0.212.

In the case of `NC1=NCC2c3ccccc3Cc3ccccc3N12` (stereo not given) [EPINASTINE], the Hit score is on record as -0.03911.

Consider `O=C(O)CCC(=O)O` [SUCCINIC ACID], for which the Hit score is 0.1442.

Take `Cc1cccn2c(=O)c(-c3nnn[nH]3)cnc12` [PEMIROLAST]: the Hit score is reported as 0.101.

In turn, `CCOCCn1c(N2CCCN(C)CC2)nc2ccccc21` [EMEDASTINE] displayed a Hit score of 0.1159.

For the molecule `O=S(=O)(c1cccc2c(Cl)cccc12)N1CCCNCC1`, the Hit score came to 0.1361.

`C[N+]12CCCC[C@@H]1CCC(=C(c1cccs1)c1cccs1)C2` (stereo not given in full): the Hit score worked out at 0.195.

As for `O=C(CCCN1CCC2(CC1)C(=O)NCN2c1ccccc1)c1ccc(F)cc1` [SPIPERONE], the Hit score stood at 0.05718.

`COc1cc2c(cc1Cc1cccc(Cl)c1F)c(=O)c(C(=O)O)cn2[C@H](CO)C(C)C` registered a Hit score of 0.1404.

`COc1ccc2c(c1)c(CC(=O)OCC(=O)O)c(C)n2C(=O)c1ccc(Cl)cc1` [ACEMETACIN] showed a Hit score of 0.1062.

For `CC(=O)NC[C@H]1CN(c2ccc(N3CCOCC3)c(F)c2)C(=O)O1` [LINEZOLID], the Hit score is given as 0.0228.

`Cc1nccn1CC1CCc2c(c3ccccc3n2C)C1=O` (stereo not given) [ONDANSETRON] yielded a Hit score of 0.03849.

Turning to `CCOCCOC(=O)/C=C/c1ccc(OC)cc1` [CINOXATE], the Hit score amounted to 0.1586.

`CN(C)C(=O)c1cc2cnc(Nc3ccc(N4CCNCC4)cn3)nc2n1C1CCCC1` [RIBOCICLIB] yielded a Hit score of 0.1227.

Molecule `Cc1cccc(C)c1NC(=O)CN1CCN(CCCC(c2ccc(F)cc2)c2ccc(F)cc2)CC1` [LIDOFLAZINE] registered a Hit score of 0.2006.

For the molecule `Nc1nnc(-c2cccc(Cl)c2Cl)c(N)n1` [LAMOTRIGINE], the Hit score stood at 0.0758.
